Assay [1] concerns the target T1, human Crumbs peptide (homologue 1; residues 1390-1406), Crb^17, as used for crystallization (human).
T1 sequence (peptide): RVEMWNLMPPPAMERLI
Description: SEC; complex followed by the intrinsic tryptophan fluorescence of Crb^17; data not shown; both purified. In general terms: SEC sorts molecules by how far they enter the pores of the column.

By UniProt entry, the sequences of proteins in these tests, tags left out. Where a name states a change or a piece, a line headed by the entry shows the natural chain unless it says otherwise.
UniProt P82279: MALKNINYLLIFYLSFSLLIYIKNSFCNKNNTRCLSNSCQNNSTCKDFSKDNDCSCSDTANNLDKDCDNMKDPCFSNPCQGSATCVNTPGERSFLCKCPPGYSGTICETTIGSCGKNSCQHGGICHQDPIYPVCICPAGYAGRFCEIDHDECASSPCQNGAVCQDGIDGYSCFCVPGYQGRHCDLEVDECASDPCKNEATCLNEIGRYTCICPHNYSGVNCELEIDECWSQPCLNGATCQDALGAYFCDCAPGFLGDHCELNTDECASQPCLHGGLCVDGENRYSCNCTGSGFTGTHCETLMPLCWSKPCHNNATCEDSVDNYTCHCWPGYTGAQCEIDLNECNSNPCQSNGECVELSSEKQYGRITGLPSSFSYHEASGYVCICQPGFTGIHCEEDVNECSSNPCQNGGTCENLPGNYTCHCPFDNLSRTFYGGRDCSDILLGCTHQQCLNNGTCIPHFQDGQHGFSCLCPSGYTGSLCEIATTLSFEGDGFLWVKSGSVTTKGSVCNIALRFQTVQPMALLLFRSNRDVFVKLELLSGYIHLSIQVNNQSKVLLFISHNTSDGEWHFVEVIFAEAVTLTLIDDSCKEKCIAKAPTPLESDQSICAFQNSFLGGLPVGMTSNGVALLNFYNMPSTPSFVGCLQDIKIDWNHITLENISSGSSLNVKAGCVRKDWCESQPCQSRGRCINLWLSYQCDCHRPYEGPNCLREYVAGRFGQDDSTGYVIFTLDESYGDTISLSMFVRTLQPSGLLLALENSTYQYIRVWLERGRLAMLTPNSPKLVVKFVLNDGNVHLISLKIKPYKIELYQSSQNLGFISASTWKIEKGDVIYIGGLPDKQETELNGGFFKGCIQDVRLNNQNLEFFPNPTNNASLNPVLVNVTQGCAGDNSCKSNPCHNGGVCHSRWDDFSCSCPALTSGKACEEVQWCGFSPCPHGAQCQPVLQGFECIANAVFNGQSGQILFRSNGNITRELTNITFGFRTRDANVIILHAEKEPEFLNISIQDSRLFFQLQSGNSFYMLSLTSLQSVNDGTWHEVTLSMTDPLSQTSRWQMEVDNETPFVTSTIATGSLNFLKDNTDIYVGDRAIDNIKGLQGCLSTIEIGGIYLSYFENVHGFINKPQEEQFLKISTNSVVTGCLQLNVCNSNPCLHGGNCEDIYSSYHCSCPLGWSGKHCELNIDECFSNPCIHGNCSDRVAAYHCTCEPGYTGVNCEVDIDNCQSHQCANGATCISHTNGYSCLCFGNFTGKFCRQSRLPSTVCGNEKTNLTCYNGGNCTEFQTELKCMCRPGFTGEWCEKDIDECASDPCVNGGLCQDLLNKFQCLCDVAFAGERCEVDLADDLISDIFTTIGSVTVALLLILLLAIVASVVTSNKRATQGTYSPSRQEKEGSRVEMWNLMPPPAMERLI

For assay [2] the target is unchanged. Description: crystal structure; Pals1^PDZ incubated with a two-molar excess of Crb^17 for 30 min on ice; crystals at 20°C in 0.1 M HEPES pH 7.29, 2.68 M NaCl; 1.23 Å; both purified.
Assay [3] deals with T2, fluorescein-labelled Crb^17 I1406A (human) (UniProt P82279).
T2 sequence (peptide, fluorescein-labelled (position not stated)): RVEMWNLMPPPAMERLA
Description: condition: protein concentration ranging from 0 to 300 µM; fluorescence polarisation; fixed fluorescein-labelled peptide (50 nM), Pals1 PDZ protein titrated 0 to 300 µM; 20 mM HEPES pH 7.5, 100 mM NaCl, 1 mM DTT; 20 µl in 384-well plate, read after 5 min; both purified. For orientation: In fluorescence polarisation assays a small probe gives low polarisation when free and higher when bound to something large.

Results are given in words; binding and its absence hold for the method and conditions named. Some binding calls cover weakened binding; strength is not graded here.

B1: human Pals1 PDZ domain (Pals1^PDZ; residues 251-335), wild type (domain or fragment, UniProt Q8N3R9 251-335)
chain: GPLGSGETVKIVRIEKARDIPLGATVRNEMDSVIISRIVKGGAAEKSGLLHEGDEVLEINGIEIRGKDVNEVFDLLSDMHGTLTFVLIPS
For B1, the values for the binding entry in assay [1], in assay [2] and in assay [3] were “binds”, “binds” and “no binding”, respectively.

The values above are taken from article PMC4356366, “Structures of the human Pals1 PDZ domain with and without ligand suggest gated access of Crb to the PDZ peptide-binding groove” (Acta Crystallographica Section D: Biological Crystallography, 2015).
